Data as given in PubChem BioAssay AID1259308 (NCATS, 2017)
The whole screen tested about 59,000 reagents; below is an unselected part. About 1,510 of them (2.6%) were called active. 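Calls use total luciferase alone and ignore viability, so some active siRNAs may act by altering cell number.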 Reagents against one gene are numbered here.

Assay: 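Candidate targets for better recombinant protein yield in mammalian cells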 (primary screen)
System: human HEK293 embryonic kidney cells stably expressing firefly luciferase (HEK-CMV-Luc2-Hygro)
Reagent: single siRNA against human genes, 0.8 pmol siRNA per well
Duration: 72 h
Read-out: 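Reporter luminescence and viable-cell signal on separate replicate plates, given as percent of non-targeting control and median/MAD z-scores, plus per-cell luciferase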
Reading the numbers: total luciferase, z-score and total luciferase, % of control: higher = more reporter protein produced; luciferase per cell, z-score: higher = more reporter output per viable cell; viable cells, % of control: higher = more viable cells
Active means: 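Active when the median/MAD z-score for overall luciferase is greater than 3; a gene was taken forward for validation with new siRNAs if at least two of its three siRNAs passed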
Meaning of the calls: active = raised luciferase; inactive = no rise

target | siRNA no. | total luciferase, z-score | total luciferase, % of control | luciferase per cell, z-score | viable cells, % of control | activity call
ADH6 | 1 | 0.22 | 86.3 | -0.3 | 104 | inactive
ADH6 | 2 | 0.541 | 92.6 | 0.609 | 88.2 | inactive
ADH6 | 3 | -1.41 | 53.9 | -0.142 | 62.5 | inactive
TSSK3 | 1 | 0.61 | 94 | 0.592 | 89.9 | inactive
TSSK3 | 2 | 0.388 | 89.6 | -0.153 | 104 | inactive
TSSK3 | 3 | 0.195 | 85.8 | -0.633 | 113 | inactive
SPPL2A | 1 | 0.521 | 92.3 | 0.0616 | 101 | inactive
SPPL2A | 2 | -0.535 | 71.2 | -0.326 | 86.7 | inactive
SPPL2A | 3 | -0.471 | 72.5 | 0.336 | 74.2 | inactive
PRR3 | 1 | 0.191 | 85.7 | 0.389 | 86.4 | inactive
PRR3 | 2 | -0.456 | 72.8 | -0.477 | 92.3 | inactive
PRR3 | 3 | -0.632 | 69.3 | -1.43 | 113 | inactive
FUS | 1 | -2.22 | 37.6 | -2.47 | 80.6 | inactive
FUS | 2 | 0.588 | 93.6 | 0.314 | 96.3 | inactive
FUS | 3 | -0.618 | 69.6 | -0.945 | 99.7 | inactive
PSMD6 | 1 | 1.7 | 116 | 3.31 | 54 | inactive
PSMD6 | 2 | 0.127 | 84.4 | 2.75 | 45.8 | inactive
PSMD6 | 3 | 0.927 | 100 | 3.72 | 42.1 | inactive
WSB1 | 1 | -0.212 | 77.7 | 0.518 | 75.7 | inactive
WSB1 | 2 | -0.844 | 65.1 | -0.846 | 90.9 | inactive
WSB1 | 3 | -1.12 | 59.5 | -0.342 | 72.8 | inactive
ALAS2 | 1 | 0.257 | 87 | 0.0284 | 96.5 | inactive
ALAS2 | 2 | 1.51 | 112 | 1.59 | 82.2 | inactive
ALAS2 | 3 | 0.318 | 88.2 | 0.269 | 91.8 | inactive
IFRD1 | 1 | -0.358 | 74.8 | -0.86 | 105 | inactive
IFRD1 | 2 | 0.0372 | 82.6 | -0.793 | 114 | inactive
IFRD1 | 3 | 3.05 | 142 | 4.1 | 54.1 | active
TRIR | 1 | -0.294 | 76 | -0.551 | 98.2 | inactive
TRIR | 2 | 3.15 | 145 | 1.82 | 100 | active
TRIR | 3 | -0.039 | 81.1 | -0.0714 | 92.4 | inactive
DEFB112 | 1 | -0.0328 | 81.2 | -0.137 | 94.1 | inactive
DEFB112 | 2 | -0.749 | 67 | 0.921 | 58.7 | inactive
DEFB112 | 3 | -1.3 | 56 | -0.869 | 78.7 | inactive
VIPR1 | 1 | 0.604 | 93.9 | 0.585 | 90 | inactive
VIPR1 | 2 | -0.526 | 71.4 | 0.0395 | 79 | inactive
VIPR1 | 3 | 0.149 | 84.8 | -0.353 | 104 | inactive
MYH2 | 1 | -2.16 | 39 | -1.21 | 59.9 | inactive
MYH2 | 2 | 0.671 | 95.2 | 1.07 | 80.2 | inactive
MYH2 | 3 | -0.49 | 72.1 | 0.0287 | 80 | inactive
MMP27 | 1 | 0.498 | 91.8 | -0.248 | 109 | inactive
MMP27 | 2 | 0.0255 | 82.4 | -0.649 | 109 | inactive
MMP27 | 3 | -1.59 | 50.3 | -1.42 | 81.7 | inactive
PPARD | 1 | -2.14 | 39.2 | -3.25 | 103 | inactive
PPARD | 2 | -0.917 | 63.6 | -1.2 | 97.7 | inactive
PPARD | 3 | 0.183 | 85.5 | -0.819 | 119 | inactive
NUDT4 | 1 | 1.64 | 114 | 0.744 | 105 | inactive
NUDT4 | 2 | 2.07 | 123 | 1.26 | 98.6 | inactive
NUDT4 | 3 | -0.972 | 62.6 | -1.73 | 110 | inactive
TRIM27 | 1 | -2.16 | 39 | -2.31 | 80.1 | inactive
TRIM27 | 2 | 1.06 | 103 | 0.557 | 99.4 | inactive
TRIM27 | 3 | -0.637 | 69.2 | -0.927 | 98.7 | inactive
H2BC3 | 1 | -0.638 | 69.2 | -0.727 | 93.7 | inactive
H2BC3 | 2 | -0.859 | 64.8 | -0.892 | 91.6 | inactive
H2BC3 | 3 | -0.876 | 64.5 | -0.576 | 83.8 | inactive
CCNB1IP1 | 1 | 0.557 | 93 | 0.627 | 88.1 | inactive
CCNB1IP1 | 2 | -1.01 | 61.8 | -1.2 | 94.6 | inactive
CCNB1IP1 | 3 | 0.545 | 92.7 | 0.21 | 98 | inactive

An excerpt from the list above, for reference:
target | siRNA no. | total luciferase, z-score | total luciferase, % of control | luciferase per cell, z-score | viable cells, % of control | activity call
FUS | 3 | -0.618 | 69.6 | -0.945 | 99.7 | inactive
PSMD6 | 1 | 1.7 | 116 | 3.31 | 54 | inactive
PSMD6 | 2 | 0.127 | 84.4 | 2.75 | 45.8 | inactive
PSMD6 | 3 | 0.927 | 100 | 3.72 | 42.1 | inactive
WSB1 | 1 | -0.212 | 77.7 | 0.518 | 75.7 | inactive
WSB1 | 2 | -0.844 | 65.1 | -0.846 | 90.9 | inactive
WSB1 | 3 | -1.12 | 59.5 | -0.342 | 72.8 | inactive
